37 compounds from PubChem BioAssay AID2685 (National Center for Advancing Translational Sciences (NCATS), 2010) can be followed below.

The structures appear in SMILES notation. The list shows a part of the results. Further columns of the screen follow, without active or inactive calls. Most of these compounds were active or inconclusive in the main read-out, so they are no random draw. Potencies come from curve fits of mixed quality, noted in brackets.

The nature of this test: qHTS Assay for Lipid Storage Modulators in Drosophila S3 Cells.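 For cell number change: cells counted by Cell Tracker Red CMTPX staining in the red channel.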 The following applies: BODIPY lipid droplet fluorescence, 18-24 h; for cell number change: measured here: cell count max response, cells fed with added oleic acid. The essentials:
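Laser-scanning cytometry quantifies lipid droplet accumulation (500–530 nm total intensity; droplet/cell object ratio) in oleic acid-fed (400 uM added) Drosophila S3 cells treated with a concentration series. 20 uM Triacsin C defined 100% inhibition.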
On the technique in general: Quantitative high-throughput screening tests each substance at several concentrations.

Setting [1] is: measured here: lipid fluorescence (Fed channel) AC50, cells fed with added oleic acid.
[2] abbreviates: measured here: cell number channel AC50, cells fed with added oleic acid.

As usually defined, the AC50 is the concentration giving half of the maximal activity seen. A high value points to activity only at high concentration. `Cc1nc(NCCCn2ccnc2)c2ccccc2n1`: the cell number change was -5.42%. Also, the concentration at half-maximal activity (AC50) under setting [1] is 0.517 µM [falling, full curve, poor fit].

As to `COc1ccc(OC)c(NC(=O)c2cc3oc4ccccc4c3cc2O)c1`, the cell number change is -46.4%. In addition, the half-maximal activity concentration (AC50) under setting [2] is 29.1 µM [falling, partial curve, poor fit]. For the same compound, the concentration at half-maximal activity (AC50) under setting [1] was 0.82 µM [falling, partial curve].

Consider `C[C@H](NC(=O)[C@@H]1CSC2c3ccccc3C(=O)N21)C(=O)NCCc1ccc(F)cc1` (stereo partly specified), for which the cell number change amounted to 21.5%. Moreover, under setting [1], the concentration at half-maximal activity (AC50) was 29.1 µM [rising, partial curve].

Regarding `COc1ccc(-c2nn(Cc3ccccc3)cc2C(=O)N2CCN(c3ncccn3)CC2)cc1OC`, the cell number change was determined as 33.1%. For the same compound, under setting [2], the half-maximal activity concentration (AC50) was 29.1 µM [rising, single point]. The AC50 under setting [1] was 29.1 µM [rising, single point].

With `COc1ccc(-c2cc(C(F)(F)F)c(C#N)c(SCC(=O)Nc3nc(C)co3)n2)cc1`, the cell number change is -17.8%. For the same compound, the AC50 under setting [1] was 0.82 µM [falling, full curve, poor fit].

Turning to `OC(CCN1CCOCC1)c1ccccc1` (stereo unspecified), the cell number change turned out to be 30.9%. Further, the AC50 under setting [2] was 5.8 µM [rising, partial curve, poor fit].

Turning to `COc1ccc(C2C(C(=O)OCC(=O)N3CCCCC3)CCC(=O)N2c2ccc(OC)cc2)cc1` (stereo unspecified), the cell number change was -10.2%.

Turning to `Nc1nnc(CSCc2ccc(Cl)cc2Cl)s1`, the cell number change worked out at 2.4%. Moreover, the half-maximal activity concentration (AC50) under setting [1] was 16.4 µM [rising, partial curve, poor fit].

Regarding `COC(=O)C1CCN(C(=O)NC2CCCCC2)CC1`, the cell number change turned out to be 12.7%. For the same compound, the concentration at half-maximal activity (AC50) under setting [1] is 0.82 µM [falling, single point].

On to `CN(CC(=O)Nc1ccc(OC(F)(F)F)cc1)C(=O)C1CCC1`, for which the cell number change was -22.2%. The AC50 under setting [1] was 11.6 µM [falling, single point].

As to `CCC(C)c1c(O)nc(SCc2ccccc2)[nH]c1=O` (stereo unspecified), the cell number change amounted to 3.59%. The concentration at half-maximal activity (AC50) under setting [2] was 0.291 µM [falling, full curve, poor fit]. In addition, the AC50 under setting [1] is 0.0058 µM [falling, full curve, poor fit].

Turning to `COc1ccc(C(=O)N(C)C2CCCN(Cc3ccccc3F)C2)cc1OC` (stereo unspecified), the cell number change is 48.3%. Further, under setting [2], the half-maximal activity concentration (AC50) was 16.4 µM [rising, partial curve, poor fit].

As for `Cc1cccc(N2CCN(C(=O)Cc3ccc(-n4c(=O)[nH]c5ccsc5c4=O)cc3)CC2C)c1` (stereo unspecified), the cell number change turned out to be 88%. In addition, under setting [2], the half-maximal activity concentration (AC50) was 16.4 µM [rising, partial curve, poor fit]. Besides, under setting [1], the AC50 was 16.4 µM [rising, partial curve].

For the compound `O=C(CCN1CCN(CCO)CC1)Nc1ccc(C2CCCC2)cc1`, the cell number change came to 23.3%. Moreover, the AC50 under setting [1] is 23.1 µM [rising, partial curve, poor fit].

Take `COc1cccc(COC(=O)c2ccc3c(c2)NC(=O)C(C)S3)c1OC` (stereo unspecified): under setting [1], the AC50 was 6.51 µM [falling, single point].

On to `CCOC(=O)C1CCCN(Cc2cc(OC)c(O)c(OC)c2)C1` (stereo unspecified), for which the cell number change is -95.4%. Further, the concentration at half-maximal activity (AC50) under setting [2] is 23.1 µM [falling, partial curve]. Moreover, under setting [1], the AC50 is 2.91 µM [falling, full curve].

Consider `CCn1c(SCC(=O)Nc2ccccc2OC)nnc1-c1cnccn1`, for which the cell number change stood at 7.78%. Moreover, the half-maximal activity concentration (AC50) under setting [1] is 1.03 µM [rising, partial curve].

As for `CCN(CC)c1ccc(NC(=S)NC(=O)c2cccs2)cc1`, the cell number change was -25.5%. Besides, the AC50 under setting [1] was 16.4 µM [falling, single point].

Regarding `CC1(c2ccc3ccccc3c2)NC(=O)N(CC(=O)NCc2cccs2)C1=O` (stereo unspecified), the cell number change came to 6.41%. In addition, under setting [1], the AC50 was 29.1 µM [rising, single point].

For the compound `Cc1ccc(S(=O)(=O)N2CCC(NC(=O)C3CCCCC3)CC2)cc1`, the cell number change amounted to 3.48%. For the same compound, under setting [1], the AC50 was 6.51 µM [rising, single point].

Take `Cc1ccc(S(N)(=O)=O)cc1`: the cell number change is 11.6%. In addition, the concentration at half-maximal activity (AC50) under setting [1] is 29.1 µM [rising, single point].

Regarding `CC(C)(C)c1ccc(OCC(=O)NCc2ccco2)cc1`, the cell number change was -45.9%. Also, under setting [2], the half-maximal activity concentration (AC50) was 32.6 µM [falling, single point]. The concentration at half-maximal activity (AC50) under setting [1] is 0.00461 µM [falling, full curve, poor fit].

Regarding `CC(=O)c1ccc(N2CCN(C(=O)c3ccc4ccccc4n3)CC2)cc1`, the cell number change came to 3.53%.

Regarding `COc1ccccc1CNC(=O)CN(C)S(=O)(=O)c1ccc(F)cc1`, the cell number change was -12.4%.

Regarding `Cc1[nH]c2ccccc2c1/C=C/C(=O)c1ccccc1`, the cell number change came out at 8.24%. Also, the AC50 under setting [1] is 18.4 µM [falling, single point].

Regarding `CCOC(=O)N1CCN(Cc2nc3cc([N+](=O)[O-])ccc3n2CC)CC1`, the cell number change was determined as 24.8%.

As for `CCOc1ccc(S(=O)(=O)N/N=C(\C)Cc2ccc(OC)cc2)cc1`, the cell number change was 70.4%. In addition, the concentration at half-maximal activity (AC50) under setting [2] was 2.31 µM [rising, full curve].

`Cc1noc(C)c1COc1ccccc1C(=O)N(C)Cc1ccc(C(C)(C)C)cc1`: the cell number change was -6.86%. Also, the half-maximal activity concentration (AC50) under setting [1] is 8.2 µM [falling, partial curve].

Regarding `O=C1CN(C(=O)CSc2nnnn2C2CC2)c2ccccc2N1`, the cell number change was determined as 34%. Further, the AC50 under setting [2] was 0.0651 µM [rising, full curve, poor fit].

For the compound `CC(=O)c1cccc(N/C=C\C(=O)c2ccc(C)cc2)c1`, the cell number change stood at 45.1%. Moreover, the AC50 under setting [2] is 29.1 µM [rising, single point].

`Cc1cc(N2CCN(C(=O)c3ccco3)CC2)n2nc(-c3cccc(F)c3)cc2n1`: the cell number change was -47.7%. Besides, the half-maximal activity concentration (AC50) under setting [2] is 32.6 µM [falling, single point].

With `COc1ccc(C(=O)N/N=C2/SCC(=O)N2Cc2ccc3c(c2)OCO3)cc1OC`, the cell number change was -22.4%. Under setting [1], the AC50 was 5.17 µM [falling, full curve, poor fit].

Regarding `CCOC(=O)N1CCN(CCC(=O)c2ccc(OC)cc2)CC1`, the cell number change was -64.4%. For the same compound, the half-maximal activity concentration (AC50) under setting [2] was 18.4 µM [falling, single point]. Besides, the half-maximal activity concentration (AC50) under setting [1] is 16.4 µM [falling, single point].

`CCc1noc(C)c1C(=O)Nc1nc(-c2ccc(Cl)cc2Cl)cs1`: the cell number change was found to be 25%. Besides, under setting [2], the AC50 is 4.61 µM [falling, single point]. Under setting [1], the AC50 was 6.51 µM [falling, single point].

Consider `CCC(=O)N1CCN(c2ccccc2NC(=O)COc2ccccc2Cl)CC1`, for which the AC50 is, setting by setting: under setting [2], 1.64 µM [rising, partial curve]; under setting [1], 2.31 µM [rising, partial curve].

As to `COc1ccc(N2Cc3ccccc3C2=NC(=O)c2cncc(Br)c2)cc1`, the cell number change is 39.1%. Further, under setting [2], the concentration at half-maximal activity (AC50) was 25.9 µM [rising, single point].

For `COc1ccc(C2C=C(c3ccccc3)Nc3nnnn32)cc1` (stereo unspecified), under setting [2], the concentration at half-maximal activity (AC50) is 6.51 µM [rising, single point].
